Assay results taken from PMC8149633.
These are yes or no findings as the source states them, for the method shown. Binding seen in cells or lysates may run through a third protein. Some entries that bind do so weakly or less than the wild type.

The chains behind the UniProt entries cited, without tags or fusion partners.
UniProt Q12884: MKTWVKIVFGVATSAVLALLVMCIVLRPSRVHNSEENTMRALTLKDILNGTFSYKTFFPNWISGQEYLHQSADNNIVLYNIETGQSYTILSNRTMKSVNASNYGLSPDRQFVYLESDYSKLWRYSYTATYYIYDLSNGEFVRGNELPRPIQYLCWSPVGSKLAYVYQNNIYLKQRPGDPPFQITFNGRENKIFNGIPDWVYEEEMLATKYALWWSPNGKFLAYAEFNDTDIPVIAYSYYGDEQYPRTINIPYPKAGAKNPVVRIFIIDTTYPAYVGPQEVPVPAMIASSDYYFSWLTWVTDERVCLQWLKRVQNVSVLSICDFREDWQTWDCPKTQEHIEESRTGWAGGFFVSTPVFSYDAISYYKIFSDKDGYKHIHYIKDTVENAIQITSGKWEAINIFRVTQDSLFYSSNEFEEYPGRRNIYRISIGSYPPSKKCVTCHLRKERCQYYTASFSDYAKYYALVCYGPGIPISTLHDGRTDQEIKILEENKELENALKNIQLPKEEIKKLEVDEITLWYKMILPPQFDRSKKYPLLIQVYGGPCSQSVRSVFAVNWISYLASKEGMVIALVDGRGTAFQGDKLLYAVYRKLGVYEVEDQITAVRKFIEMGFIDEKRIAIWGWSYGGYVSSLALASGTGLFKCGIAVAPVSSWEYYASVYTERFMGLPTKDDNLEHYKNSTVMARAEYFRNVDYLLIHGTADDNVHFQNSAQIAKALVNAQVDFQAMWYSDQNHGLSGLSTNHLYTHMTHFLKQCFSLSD
UniProt P06733: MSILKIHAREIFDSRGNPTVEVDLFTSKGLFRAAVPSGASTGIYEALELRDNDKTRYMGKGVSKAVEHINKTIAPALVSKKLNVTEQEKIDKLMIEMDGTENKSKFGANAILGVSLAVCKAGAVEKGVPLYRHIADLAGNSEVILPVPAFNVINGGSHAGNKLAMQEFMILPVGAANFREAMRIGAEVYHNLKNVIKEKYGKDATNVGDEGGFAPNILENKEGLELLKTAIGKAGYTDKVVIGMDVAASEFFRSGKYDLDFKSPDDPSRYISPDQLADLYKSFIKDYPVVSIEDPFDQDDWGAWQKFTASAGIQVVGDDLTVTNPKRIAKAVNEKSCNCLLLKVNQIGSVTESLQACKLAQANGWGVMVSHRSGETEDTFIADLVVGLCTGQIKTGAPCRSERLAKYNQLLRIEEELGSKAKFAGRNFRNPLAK

Target: Fibroblast activation protein alpha (FAP), overexpressed in HCT116-FAP and HCT8-FAP cells (UniProt Q12884)
Assay: co-IP; lysates of HCT116-FAP and HCT8-FAP cells immunoprecipitated with anti-FAP or anti-ENO1 antibody (IgG as negative control), protein A agarose, 4 °C, western blot

Substance: Enolase1 (ENO1) (from UniProt P06733 1-434)
- binding: binds
